According to PubChem BioAssay AID1671190 (National Center for Advancing Translational Sciences (NCATS), 2021):
Several values for one entry are separate records, joined by “and”; a condition that tells them apart may be missing. Equal entries are not always repeated. About 6,100 (1.1%) of roughly 580,000 compounds were called active. The shares of active, inactive and inconclusive entries below differ from those in the screen. Calls come from the whole dose curve; as a rule, active = well fitted inhibition curve with a large enough effect; inconclusive = small, poorly fitted or top-dose-only effect, or another doubt; inactive = no such curve, though single readings can be large or run the other way. Potencies beside an inconclusive call are fits to weak or partial responses and may not hold up.

The chains behind the UniProt entries cited, without tags or fusion partners. Where a name states a change or a piece, a line headed by the entry shows the natural chain unless it says otherwise.
UniProt P18054: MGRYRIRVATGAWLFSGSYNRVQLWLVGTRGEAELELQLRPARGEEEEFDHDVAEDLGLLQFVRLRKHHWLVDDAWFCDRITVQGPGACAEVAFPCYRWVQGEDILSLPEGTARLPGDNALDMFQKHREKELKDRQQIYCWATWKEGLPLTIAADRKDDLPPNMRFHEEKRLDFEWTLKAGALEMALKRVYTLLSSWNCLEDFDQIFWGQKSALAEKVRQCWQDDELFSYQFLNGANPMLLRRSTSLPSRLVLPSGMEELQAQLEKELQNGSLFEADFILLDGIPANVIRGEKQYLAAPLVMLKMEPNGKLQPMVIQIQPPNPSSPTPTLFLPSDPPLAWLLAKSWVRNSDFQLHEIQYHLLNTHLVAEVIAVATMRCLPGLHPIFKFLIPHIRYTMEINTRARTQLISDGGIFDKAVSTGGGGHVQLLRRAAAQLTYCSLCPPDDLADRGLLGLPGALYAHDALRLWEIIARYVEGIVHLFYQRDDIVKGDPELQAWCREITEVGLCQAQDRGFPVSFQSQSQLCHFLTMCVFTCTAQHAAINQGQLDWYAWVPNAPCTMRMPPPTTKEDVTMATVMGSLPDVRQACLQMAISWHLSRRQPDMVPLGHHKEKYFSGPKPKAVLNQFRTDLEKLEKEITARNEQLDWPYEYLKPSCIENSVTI

target: Polyunsaturated fatty acid lipoxygenase ALOX12 (Homo sapiens) (UniProt P18054); assay: Primary qHTS assay for inhibitors of human arachidonate 12S-lipoxygenase (ALOX12): Round 2; details: purified 12hLO, xylenol orange hydroperoxide absorbance; series mostly up to 108 µM
Procedure, shortened: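 Purified human 12hLO at 150 nM in 25 mM Hepes, 0.01% Triton X-100, pH 7.0, preincubated 15 min at room temperature with compound. Reaction started with 40 uM arachidonic acid, 30 min at room temperature. Hydroperoxide measured by Fe-xylenol orange, 573/405 nm absorbance ratio.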
Potency is the fitted concentration of half-maximal effect.

Row | Structure (SMILES) | Potency
1 | CCc1nnc([C@@H]2CC(F)(F)CN2C(=O)Cn2cccn2)o1 | inactive
2 | CCn1nc(NS(=O)(=O)c2ccc([N+](=O)[O-])cc2)c2cc3cc(C)ccc3nc21 | inconclusive: 44.7 µM [inhibitor, partial curve, poor fit]
3 | COc1ccc(-c2nn(Cc3ccccc3)cc2C(=O)N2CCN(c3ncccn3)CC2)cc1 | inconclusive: 126 µM [inhibitor, single point]
4 | CCN(CC)CCNS(=O)(=O)c1ccc2[nH]cc(C(=O)O)c(=O)c2c1 | inactive
5 | CC(=O)c1c(COC(=O)c2ccncc2)nc2ccccc2[n+]1[O-] | inactive
6 | COc1cc(C2C3CCCCC3(O)CCN2Cc2ccccc2Cl)ccc1O (stereo not given) | inconclusive: 100 µM [inhibitor, single point]
7 | C=CCN(c1nc(C)cc(OC)n1)S(=O)(=O)c1ccccc1 | inconclusive: 89.1 µM [inhibitor, single point]
8 | CN(Cc1ccccc1)C1CCN(Cc2ccccc2F)CC1 | inconclusive: 0.447 µM [inhibitor, full curve, poor fit]
9 | O=C(CCc1ncc(-c2ccc(F)cc2)o1)N1CCCCC1Cc1ccccc1 (stereo not given) | inactive
10 | Cc1ccc(C)c(C(NC(=O)c2ccccc2F)c2cccnc2)c1 (stereo not given) | inactive
11 | Cc1ccc(S(=O)(=O)N2CCN(C(=O)CN3C(=O)NC4(CCOc5ccccc54)C3=O)CC2)cc1 (stereo not given) | inactive
12 | N#Cc1ccc(CN2C[C@@H]3C[C@H]2C(=O)N(Cc2ccccc2)c2ccccc2O3)cc1 | inactive
13 | COc1cccc(C(=O)Nc2ncc3c(n2)CC(C)(C)CC3=O)c1 | inconclusive: 5.62 µM [inhibitor, full curve, poor fit]
14 | Cc1c(C(=O)O)sc2ncnc(N3CCCCC3C)c12 (stereo not given) | inactive
15 | CCOC(=O)N1CCN(c2cc(C(=O)O)c3cc(NC(=O)CC(C)C)ccc3n2)CC1 | inconclusive: 6.31 µM [inhibitor, full curve]
16 | CCn1nc(C)c2c(-c3ccccc3)cc(=O)n(C(C)C(=O)NCCc3ccccc3)c21 (stereo not given) | inconclusive: 126 µM [inhibitor, partial curve, poor fit]
17 | Cc1cccc(CNc2nc(-c3cccnc3)nc3ccccc23)c1 | inconclusive: 44.7 µM [inhibitor, partial curve, poor fit]
18 | COCCn1nc2n(c1=O)CCN(S(=O)(=O)c1c(C)nn(C)c1C)CC2 | inactive
19 | O=C(Nc1ccc(O)c(-c2nc3ccccc3o2)c1)c1ccc([N+](=O)[O-])o1 | inactive
20 | CCOC(=O)N1CCN(CC(c2ccccc2)c2ccccc2)CC1 | inconclusive: 3.98 µM [inhibitor, full curve, poor fit]
21 | CCc1ccc(CNC(=O)c2ccc(CSCc3ccc(C)cc3)o2)cc1 | inconclusive: 0.562 µM [inhibitor, full curve, poor fit]
22 | Cc1ccc(C2NC(=O)N(CC(=O)NC3CCCCC3)C3=C2C(=O)OC3)cc1 (stereo not given) | inactive

Row | Structure (SMILES) | Potency
23 | c1coc(-c2ccnc3nc(-c4cccs4)nn23)c1 | inactive
24 | CC(C)C[C@H]1C(=O)N2CCC[C@H]2[C@]2(O)O[C@](NC(=O)C3C=C4c5cccc6[nH]c(Br)c(c56)C[C@H]4N(C)C3)(C(C)C)C(=O)N12 (stereo not given in full) | inconclusive: 39.8 µM [inhibitor, partial curve]
25 | Cc1ccc(Nc2nc(-c3cccnc3)nc3ccccc23)cc1 | inactive and inconclusive: 100 µM [inhibitor, single point]
26 | COc1cccc(-c2nnc3sc(CN4CCCCC4)cn23)c1 | inconclusive: 56.2 µM [inhibitor, partial curve, poor fit]
27 | c1ccc(C(Cc2nc(-c3ccncc3)no2)c2ccccc2)cc1 | inactive
28 | COc1cccc(NC(=O)C(Cc2ccc(OC)cc2OC)c2nn[nH]n2)c1 (stereo not given) | inconclusive: 35.5 µM [inhibitor, partial curve, poor fit]
29 | CCc1nnc(NC(=O)CN2C(=O)/C(=C/c3cc(OC)c(OC)c(OC)c3)SC2=S)s1 | inactive
30 | Cc1ccc(C2NC(=O)N(CC(=O)N(C)c3cccc(C)c3)C3=C2C(=O)OC3)cc1 (stereo not given) | inconclusive: 8.91 µM [inhibitor, partial curve, poor fit]
31 | O=C(CN1C(=O)c2ccccc2C1=O)Nc1ccccc1C(F)(F)F | inactive
32 | C=C(C)C(O)CC/C(C)=C/Cc1c(O)ccc(C(=O)/C=C/c2ccc(O)cc2)c1O (stereo not given) | inconclusive: 100 µM [inhibitor, single point]
33 | CCN1CCN(CC(=O)N2c3ccccc3CC2C)CC1 (stereo not given) | inconclusive: 0.447 µM [inhibitor, full curve, poor fit]
34 | O=C(c1cccc(Cl)c1)N1CCN(c2ccc3c(c2)C2CC3CCN2C(=O)OCc2ccccc2)CC1 (stereo not given) | inconclusive: 100 µM [inhibitor, single point]
35 | O=C1NC[C@H](Cc2ccc(O)cc2)N(C[C@@H]2CCCN2C[C@H](Cc2ccc(O)cc2)N2C[C@H](Cc3ccccc3)N(CC3CCCCC3)C(=O)C2=O)C1=O | inconclusive: 44.7 µM [inhibitor, partial curve, poor fit]
36 | CS(=O)(=O)Nc1cccc(-c2nccc(Nc3ccc(F)cc3)n2)c1 | inconclusive: 35.5 µM [inhibitor, partial curve, poor fit]
37 | O=C(c1ccccc1)N1CCN(CC2CC=CCC2)CC1 (stereo not given) | inconclusive: 0.398 µM [inhibitor, full curve, poor fit]
38 | Cc1nnc(Sc2cc(NCCCO)c([N+](=O)[O-])c3nonc23)s1 | inconclusive: 25.1 µM [inhibitor, partial curve, poor fit]
39 | O=C(c1cccc(C(F)(F)F)c1)N1CCC(c2n[nH]c(=O)n2Cc2ccc(F)cc2)CC1 | inconclusive: 50.1 µM [inhibitor, partial curve]
40 | COC(=O)COc1ccc(S(=O)(=O)NCc2ccccn2)cc1 | inactive
41 | O=C(COC(=O)c1ccc2ccccc2n1)NCC(F)(F)F | inactive
42 | O=C(CCCc1ccccc1)NCC1CCCO1 (stereo not given) | inconclusive: 31.6 µM [inhibitor, single point]
43 | O=C(Nc1cccc(-c2cccc(Cl)c2)c1)C1CCN(Cc2cccc(O)c2)CC1 | inconclusive: 50.1 µM [inhibitor, partial curve, poor fit]
44 | CCCc1cc(N2CCN(c3ccc(OC)cc3)CC2)n2cnnc2n1 | inactive

Reprinted from the listing (3 entries):
Row | Structure (SMILES) | Potency
29 | CCc1nnc(NC(=O)CN2C(=O)/C(=C/c3cc(OC)c(OC)c(OC)c3)SC2=S)s1 | inactive
30 | Cc1ccc(C2NC(=O)N(CC(=O)N(C)c3cccc(C)c3)C3=C2C(=O)OC3)cc1 (stereo not given) | inconclusive: 8.91 µM [inhibitor, partial curve, poor fit]
31 | O=C(CN1C(=O)c2ccccc2C1=O)Nc1ccccc1C(F)(F)F | inactive

Later entries:

Row | Structure (SMILES) | Potency
45 | O=C(O)c1cccc(NC(=S)N/N=C/c2ccc([N+](=O)[O-])cc2)c1 | inconclusive: 1.41 µM [inhibitor, full curve, poor fit]
46 | CCN(c1ccccc1)S(=O)(=O)c1cc([N+](=O)[O-])ccc1N | inconclusive: 0.282 µM [inhibitor, full curve, poor fit]
47 | Cc1nc2sc(C(=O)OCC(=O)Nc3cccc(C(F)(F)F)c3)c(C)c2c(=O)[nH]1 | inactive
48 | CCCCC(=O)Nc1nc(C)c(-c2csc(Nc3ccccc3OC)n2)s1 | inconclusive: 39.8 µM [inhibitor, partial curve, poor fit]
49 | COc1cc(NC(=O)CCNC(=O)Cn2cnc3ccccc3c2=O)cc(OC)c1OC | inconclusive: 1.12 µM [inhibitor, full curve, poor fit]
50 | COc1cc(OC)c(OC)cc1CN1CCCC(C(=O)N2CCCC2)C1 (stereo not given) | inconclusive: 2 µM [inhibitor, full curve, poor fit]
51 | Cc1ccc(C(=O)NCCCNC(=O)c2cc3ccccc3[nH]2)cc1 | inconclusive: 79.4 µM [inhibitor, partial curve, poor fit]
52 | CC(NC(=O)c1ccc(SC(F)(F)F)cc1)c1ccncc1 (stereo not given) | inconclusive: 44.7 µM [inhibitor, partial curve, poor fit]
53 | Cc1ccc(Cc2c(-c3ccc(C)cc3)nc3cc(C)ccn23)cc1 | inconclusive: 44.7 µM [inhibitor, partial curve, poor fit]
54 | O=C(Nc1ccc(F)cc1F)N[C@H]1[C@H]2CCO[C@H]2[C@@H]1N1CCCCC1 | inconclusive: 4.47 µM [inhibitor, full curve, poor fit]
55 | CCC(=O)N1CCc2cc(Br)cc(S(=O)(=O)NCc3ccccc3)c21 | inactive
56 | O=C(CCCCCn1c(=O)[nH]c2ccccc2c1=O)NCc1ccc(Cl)cc1 | inconclusive: 89.1 µM [inhibitor, partial curve, poor fit]
57 | Cc1nc(-c2cccc(NC(=O)c3ccc(-n4nccc4C)cc3)c2)cs1 | inactive
58 | c1ccc(CNc2ncnc3ccc(-c4ccc5c(c4)OCO5)cc23)cc1 | inconclusive: 3.16 µM [inhibitor, full curve, poor fit]
59 | CCc1c(C)nc2ccc(Br)cc2c1Cl | inconclusive: 112 µM [inhibitor, single point]
60 | CC(=O)Nc1cc(-c2ccc(N)cc2)cn2c(-c3cccc(C(F)(F)F)c3)cnc12 | inconclusive: 50.1 µM [inhibitor, partial curve, poor fit]
61 | Cc1ccc(-c2cnc(CCC(=O)NC(C)c3ccc4c(c3)NC(=O)CO4)o2)cc1C (stereo not given) | inactive
62 | Cc1ccccc1-n1c(C)cc(/C=C(\C#N)C(=O)NCC2CCCO2)c1C (stereo not given) | inconclusive: 44.7 µM [inhibitor, partial curve, poor fit]
63 | CCCCC1CCC(C(=O)Oc2ccc(C=O)c(O)c2)CC1 (stereo not given) | inactive
64 | Oc1cc(Nc2ccccc2)cc2cccnc12 | inconclusive: 44.7 µM [inhibitor, partial curve, poor fit]
65 | COc1cc(=O)n2c(c1C(=O)NCC1CCOc3ccccc3C1)CCNCC2 (stereo not given) | inconclusive: 12.6 µM [inhibitor, full curve]
